Article PMC11111408, “Concurrent inhibition of oncogenic and wild-type RAS-GTP for cancer therapy” (Nature, 2024)
The source gives many values for each of these; only a part stands here.

System: PRISM DNA-barcoded human tumour cell lines
Test: PRISM pooled cell viability assay;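 note: 8 threefold dilutions from 10 µM with 5 days of exposure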
Format: cell-based
Set-up: Area under the curve (AUC): scale not given here
Details: for PRISM AUC: KRAS MUT
Method: Cells were then lysed in TCL mRNA lysis buffer, and then PCR with reverse transcription was performed. Detection of the barcodes and univariate and multivariate analysis was then performed as previously described. Data analysis is described in the Supplementary Methods. Up-to-date code for our analysis is at the github link: https://github.com/cmap/dockerized_mts.
For every gene with non-silent mutations in at least four cell-lines, we compared the AUC values between cells with and without those mutations using a t-test. This analysis was carried out for: (i) the full dataset; (ii) excluding cell lines with non-silent KRAS mutations; and (iii) excluding cell lines that have either KRAS or NRAS non-silent mutations.

[1] = KMS28BM_HAEMATOPOIETIC_AND_LYMPHOID_TISSUE

CCn1c(-c2cc(N3CCN(C4CC4)CC3)cnc2[C@H](C)OC)c2c3cc(ccc31)-c1csc(n1)C[C@H](NC(=O)[C@H]1[C@@H]3COC[C@@H]31)C(=O)N1CCC[C@H](N1)C(=O)OCC(C)(C)C2 [RMC-7977]
Area under the curve (AUC) (IGR37_SKIN): 0.9205 | Area under the curve (AUC) (IGR39_SKIN): 0.8992 | Area under the curve (AUC) (IGROV1_OVARY): 0.7676 | Area under the curve (AUC) (IHH4_THYROID): 0.9203 | Area under the curve (AUC) (IM95_STOMACH): 0.5173 | Area under the curve (AUC) (IPC298_SKIN): 0.3609 | Area under the curve (AUC) (ISHIKAWAHERAKLIO02ER_ENDOMETRIUM): 0.8318 | Area under the curve (AUC) (ISTMES2_PLEURA): 1 | Area under the curve (AUC) (J82_URINARY_TRACT): 0.801 | Area under the curve (AUC) (JAR_PLACENTA): 0.7721 | Area under the curve (AUC) (JEG3_PLACENTA): 0.9061 | Area under the curve (AUC) (JEKO1_HAEMATOPOIETIC_AND_LYMPHOID_TISSUE): 0.8433 | Area under the curve (AUC) (JHH1_LIVER): 0.496 | Area under the curve (AUC) (JHH4_LIVER): 0.85 | Area under the curve (AUC) (JHH5_LIVER): 0.5644 | Area under the curve (AUC) (JHH6_LIVER): 0.7403 | Area under the curve (AUC) (JHH7_LIVER): 0.7968 | Area under the curve (AUC) (JHOC5_OVARY): 0.7218 | Area under the curve (AUC) (JHOM1_OVARY): 0.8545 | Area under the curve (AUC) (JHOS2_OVARY): 0.7733 | Area under the curve (AUC) (JHUEM2_ENDOMETRIUM): 0.8605 | Area under the curve (AUC) (JHUEM7_ENDOMETRIUM): 0.62 | Area under the curve (AUC) (JIMT1_BREAST): 0.7261 | Area under the curve (AUC) (JJN3_HAEMATOPOIETIC_AND_LYMPHOID_TISSUE): 0.6499 | Area under the curve (AUC) (JL1_PLEURA): 0.584 | Area under the curve (AUC) (JM1_HAEMATOPOIETIC_AND_LYMPHOID_TISSUE): 0.8388 | Area under the curve (AUC) (JMSU1_URINARY_TRACT): 0.8302 | Area under the curve (AUC) (JMURTK2_SOFT_TISSUE): 1 | Area under the curve (AUC) (JOPACA1_PANCREAS): 0.4149 | Area under the curve (AUC) (JR_SOFT_TISSUE): 0.6032 | Area under the curve (AUC) (JURKAT_HAEMATOPOIETIC_AND_LYMPHOID_TISSUE): 1 | Area under the curve (AUC) (JURLMK1_HAEMATOPOIETIC_AND_LYMPHOID_TISSUE): 0.5365 | Area under the curve (AUC) (JVM3_HAEMATOPOIETIC_AND_LYMPHOID_TISSUE): 0.7607 | Area under the curve (AUC) (K029AX_SKIN): 0.9269 | Area under the curve (AUC) (K562_HAEMATOPOIETIC_AND_LYMPHOID_TISSUE): 0.607 | Area under the curve (AUC) (KALS1_CENTRAL_NERVOUS_SYSTEM): 0.8609 | Area under the curve (AUC) (KARPAS299_HAEMATOPOIETIC_AND_LYMPHOID_TISSUE): 0.4836 | Area under the curve (AUC) (KARPAS620_HAEMATOPOIETIC_AND_LYMPHOID_TISSUE): 0.5423 | Area under the curve (AUC) (KARPAS1718_HAEMATOPOIETIC_AND_LYMPHOID_TISSUE): 0.937 | Area under the curve (AUC) (KATOIII_STOMACH): 0.6092 | Area under the curve (AUC) (KCL22_HAEMATOPOIETIC_AND_LYMPHOID_TISSUE): 0.7801 | Area under the curve (AUC) (KD_SOFT_TISSUE): 0.9238 | Area under the curve (AUC) (KE37_HAEMATOPOIETIC_AND_LYMPHOID_TISSUE): 0.6942 | Area under the curve (AUC) (KE39_STOMACH): 0.6587 | Area under the curve (AUC) (KE97_STOMACH): 0.8103 | Area under the curve (AUC) (KELLY_AUTONOMIC_GANGLIA): 0.8452 | Area under the curve (AUC) (KHM1B_HAEMATOPOIETIC_AND_LYMPHOID_TISSUE): 0.4036 | Area under the curve (AUC) (KKU055_BILIARY_TRACT): 0.9851 | Area under the curve (AUC) (KKU100_BILIARY_TRACT): 0.508 | Area under the curve (AUC) (KKU213_BILIARY_TRACT): 0.6421 | Area under the curve (AUC) (KLE_ENDOMETRIUM): 1 | Area under the curve (AUC) (KMBC2_URINARY_TRACT): 0.4637 | Area under the curve (AUC) (KMCH1_BILIARY_TRACT): 0.7543 | Area under the curve (AUC) (KMH2_HAEMATOPOIETIC_AND_LYMPHOID_TISSUE): 0.9807 | Area under the curve (AUC) (KMRC1_KIDNEY): 1 | Area under the curve (AUC) (KMRC3_KIDNEY): 0.9151 | Area under the curve (AUC) (KMRC20_KIDNEY): 0.7848 | Area under the curve (AUC) (KMS11_HAEMATOPOIETIC_AND_LYMPHOID_TISSUE): 0.8315 | Area under the curve (AUC) (KMS12BM_HAEMATOPOIETIC_AND_LYMPHOID_TISSUE): 0.8787 | Area under the curve (AUC) (KMS18_HAEMATOPOIETIC_AND_LYMPHOID_TISSUE): 0.4607 | Area under the curve (AUC) (KMS21BM_HAEMATOPOIETIC_AND_LYMPHOID_TISSUE): 0.5385 | Area under the curve (AUC) (KMS27_HAEMATOPOIETIC_AND_LYMPHOID_TISSUE): 0.4667 | Area under the curve (AUC) [1]: 0.7652 | PRISM AUC [1]: 0.6205 | Area under the curve (AUC) (KMS34_HAEMATOPOIETIC_AND_LYMPHOID_TISSUE): 0.8463 | Area under the curve (AUC) (KNS42_CENTRAL_NERVOUS_SYSTEM): 0.8517 | Area under the curve (AUC) (KNS60_CENTRAL_NERVOUS_SYSTEM): 0.8388 | Area under the curve (AUC) (KNS62_LUNG): 0.5352 | Area under the curve (AUC) (KNS81_CENTRAL_NERVOUS_SYSTEM): 0.5921 | Area under the curve (AUC) (KON_UPPER_AERODIGESTIVE_TRACT): 0.4726 | Area under the curve (AUC) (KOPN8_HAEMATOPOIETIC_AND_LYMPHOID_TISSUE): 0.4718 | Area under the curve (AUC) (KOSC2CL343_UPPER_AERODIGESTIVE_TRACT): 0.5539 | Area under the curve (AUC) (KP2_PANCREAS): 0.3867 | Area under the curve (AUC) (KP3_PANCREAS): 0.5817 | Area under the curve (AUC) (KP4_PANCREAS): 0.6677 | Area under the curve (AUC) (KPNYN_AUTONOMIC_GANGLIA): 0.9976 | Area under the curve (AUC) (KS1_CENTRAL_NERVOUS_SYSTEM): 0.6006 | Area under the curve (AUC) (KU812_HAEMATOPOIETIC_AND_LYMPHOID_TISSUE): 0.5989 | Area under the curve (AUC) (KU1919_URINARY_TRACT): 0.4352 | Area under the curve (AUC) (KURAMOCHI_OVARY): 0.9422 | Area under the curve (AUC) (KYM1_SOFT_TISSUE): 0.6237 | Area under the curve (AUC) (KYO1_HAEMATOPOIETIC_AND_LYMPHOID_TISSUE): 0.587 | Area under the curve (AUC) (KYSE30_OESOPHAGUS): 0.5749 | Area under the curve (AUC) (KYSE70_OESOPHAGUS): 0.6455 | Area under the curve (AUC) (KYSE140_OESOPHAGUS): 0.7212 | Area under the curve (AUC) (KYSE150_OESOPHAGUS): 0.6598 | Area under the curve (AUC) (KYSE180_OESOPHAGUS): 0.8299 | Area under the curve (AUC) (KYSE270_OESOPHAGUS): 0.6612 | Area under the curve (AUC) (KYSE410_OESOPHAGUS): 0.5098 | Area under the curve (AUC) (KYSE450_OESOPHAGUS): 0.5089 | Area under the curve (AUC) (KYSE510_OESOPHAGUS): 0.6235 | Area under the curve (AUC) (KYSE520_OESOPHAGUS): 0.6342 | Area under the curve (AUC) (L33_PANCREAS): 0.5375 | Area under the curve (AUC) (L82_HAEMATOPOIETIC_AND_LYMPHOID_TISSUE): 0.4783 | Area under the curve (AUC) (L363_HAEMATOPOIETIC_AND_LYMPHOID_TISSUE): 0.7257 | Area under the curve (AUC) (LAMA84_HAEMATOPOIETIC_AND_LYMPHOID_TISSUE): 0.6417 | Area under the curve (AUC) (LC1SQSF_LUNG): 0.7829 | Area under the curve (AUC) (LCLC103H_LUNG): 0.8221 | Area under the curve (AUC) (LI7_LIVER): 0.661 | Area under the curve (AUC) (LK2_LUNG): 0.5337 | Area under the curve (AUC) (LMSU_STOMACH): 0.6607 | Area under the curve (AUC) (LN18_CENTRAL_NERVOUS_SYSTEM): 0.8114 | Area under the curve (AUC) (LN229_CENTRAL_NERVOUS_SYSTEM): 0.7455 | Area under the curve (AUC) (LN382_CENTRAL_NERVOUS_SYSTEM): 0.6664 | Area under the curve (AUC) (LN464_CENTRAL_NERVOUS_SYSTEM): 0.8868 | Area under the curve (AUC) (LNCAPCLONEFGC_PROSTATE): 0.8391 | Area under the curve (AUC) (LNZ308_CENTRAL_NERVOUS_SYSTEM): 0.6041 | Area under the curve (AUC) (LOUNH91_LUNG): 0.4513 | Area under the curve (AUC) (LOVO_LARGE_INTESTINE): 0.6475 | Area under the curve (AUC) (LOXIMVI_SKIN): 0.8979 | Area under the curve (AUC) (LPS141_SOFT_TISSUE): 0.9304 | Area under the curve (AUC) (LS180_LARGE_INTESTINE): 0.5319 | Area under the curve (AUC) (LS411N_LARGE_INTESTINE): 0.9628 | Area under the curve (AUC) (LS513_LARGE_INTESTINE): 0.5881 | Area under the curve (AUC) (LS1034_LARGE_INTESTINE): 0.6086 | PRISM AUC (LS1034_LARGE_INTESTINE): 0.5003 | Area under the curve (AUC) (LS_AUTONOMIC_GANGLIA): 0.9057 | Area under the curve (AUC) (LU99_LUNG): 0.4577 | Area under the curve (AUC) (LUDLU1_LUNG): 0.5866
